# Test results from the supplement of paper PMC10338343.
# ± gives the standard deviation. The entries are a selection whose mix differs from that of the whole data set. The uncertainty is large for many entries. The list shows a part of the results.
# Legend:
# [1] = tested on: MILI (PIWIL2) piRISC loaded with L1MC piRNA (26 nt); assay: pre-steady-state target cleavage rate (min^-1); higher = faster piRNA-guided slicing of the target; conditions: guide: L1MC piRNA 5'p-UAACUAAAUACUAUGCAAGCUGUAGG
# Outline: (§1)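 Cleave-'n-Seq: a transcribed, DNA-blocked target RNA library (0.1 nM) was mixed with 1 nM active affinity-purified piRISC carrying one synthetic guide, with or without 500 nM GTSF1 partner protein, in HEPES–potassium acetate buffer at 33 °C for 0–8 or 0–960 min. Uncleaved targets were sequenced and normalised to depth and to weakly complementary targets. Three trials were pooled, and k3 was capped at 0.0001 min^-1. The pre-steady-state cleavage rate came from a burst-and-steady-state fit.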
# [2] = tested on: EfPiwi piRISC loaded with L1MC piRNA (26 nt); assay: pre-steady-state target cleavage rate (min^-1); guide: L1MC piRNA 5'p-UAACUAAAUACUAUGCAAGCUGUAGG; MIWI and MILI are mouse PIWI proteins and EfPiwi is from a freshwater sponge; tags in brackets are library labels; higher = faster piRNA-guided slicing of the target
# Outline: as §1
# [3] = auxiliary factor: 500 nM mouse GTSF1
# [4] = auxiliary factor: none (no GTSF1)
# [5] = auxiliary factor: 500 nM Ephydatia muelleri Gtsf1
# [6] = auxiliary factor: none (no Gtsf1)
Sequence,"pre-steady-state target cleavage rate [1, 3]","pre-steady-state target cleavage rate [1, 4]","pre-steady-state target cleavage rate [2, 5]","pre-steady-state target cleavage rate [2, 6]"
UCCUGGAACAGCUUGCAUAGUUAUUAGUUA,0.0369 ± 0.0099,0.00268 ± 0.0034,0.00251 ± 0.0017,0.000907 ± 0.0079
UCCUGGAUGUGCUUGCAUAGUUUUUAGUUA,0.0127 ± 0.0066,0.00796 ± 0.0026,0.00538 ± 0.0024,0.00138 ± 0.0088
UCCUGGAUCUGCUUGCAUAGAAUUUAGUUA,0.0261 ± 0.0069,0.00138 ± 0.0034,0.00144 ± 0.0032,0.000606 ± 0.012
UCCUGGAUGUCGUUGCAUAGUAUUGAGUUA,0.0312 ± 0.011,0.00363 ± 0.0032,0.000515 ± 0.0088,0.000205 ± 0.037
UCCUCCUACAGCUUGCAUAGUAUUUGGUUA,0.279 ± 0.024,0.00706 ± 0.0026,0.00583 ± 0.0021,0.000736 ± 0.0094
UCCUGGAACAGCUUGCAAAGUAAUUAGUUA,0.131 ± 0.018,0.00424 ± 0.0022,0.00403 ± 0.002,0.00111 ± 0.0073
UCCUGGAUGUGCUUGCAUAGUAAUUUGUUA,0.0141 ± 0.0071,0.00133 ± 0.0053,0.000779 ± 0.0044,0.000178 ± 0.037
UCCUGCAACAGCUUGCAUAGUAUUUAGAUA,0.125 ± 0.024,0.00191 ± 0.0051,0.00372 ± 0.002,0.00035 ± 0.02
UCCUGGUACAGCUUGCAUAGUCUUUAGUUA,0.152 ± 0.025,0.00831 ± 0.003,0.00738 ± 0.0024,0.000671 ± 0.02
UCCUGGAUGUCCUUGCAUCGUAUUUAGUUA,0.0423 ± 0.015,0.00482 ± 0.0021,0.00301 ± 0.0036,0.000337 ± 0.013
UCCUGCUACAGCUUGCAUAGAUUUUAGUUA,,0.00216 ± 0.0028,0.00194 ± 0.0023,0.000812 ± 0.0086
UCCUGCUACAGCUUGCAAAGUAUUUACUUA,0.0653 ± 0.0078,0.00269 ± 0.0028,0.00241 ± 0.0031,0.000227 ± 0.031
UCCUGGAUGAGCUAGCAUAGAAUUUAGUUA,0.0337 ± 0.011,0.00157 ± 0.0037,0.00286 ± 0.0026,0.000437 ± 0.02
UCCUGCUACAGCAUGCAUAGUAUUUUGUUA,0.167 ± 0.029,0.00333 ± 0.0032,0.00422 ± 0.002,0.000554 ± 0.0097
UCCUGGAUGUGCGUUGCAUAGUAUUUAGUUA,0.145 ± 0.016,0.00925 ± 0.0032,0.00539 ± 0.0024,0.000939 ± 0.011
UCCUGGUUCAGCUUGCAUAGUAUAUAGUUA,0.198 ± 0.034,0.0112 ± 0.0032,0.00607 ± 0.0027,0.000694 ± 0.017
UCCUGCUACAGCUUGCAUGUAUUUAGUUA,0.104 ± 0.02,0.00362 ± 0.0023,0.00438 ± 0.0028,0.00116 ± 0.0074
UCCUCCUACAGCUUGCAAAGUAAUUAGUUA,0.116 ± 0.012,0.00331 ± 0.0024,0.00531 ± 0.0022,0.000772 ± 0.0084
UCCUGGAACAGCUUGCUAUGUAUUUACAAA,,0.000645 ± 0.011,0.000318 ± 0.0093,0.000315 ± 0.016
UCCUGGAACAGCUUGCAUAGUAUUUACUAA,,0.00165 ± 0.0039,0.00102 ± 0.0043,0.00021 ± 0.04
UCCUGGAUGUCCUUGCAUGGUAUUUAGUUA,0.0346 ± 0.011,0.00814 ± 0.0026,0.00143 ± 0.0035,0.000538 ± 0.01
UCCUGCUACAGCUUGCAUAGAAAUUAGUUA,0.059 ± 0.015,0.00196 ± 0.0032,0.0026 ± 0.0021,0.000806 ± 0.0096

Sequence,"pre-steady-state target cleavage rate [1, 3]","pre-steady-state target cleavage rate [1, 4]","pre-steady-state target cleavage rate [2, 5]","pre-steady-state target cleavage rate [2, 6]"
UCCUGGAUGAGCUUGCAUAGUAAUUACUUA,0.00616 ± 0.004,0.00126 ± 0.005,0.000892 ± 0.0047,0.00065 ± 0.012
UCCUGGAACAGCUUCCUUAGUAUUUAGUUA,0.214 ± 0.018,0.00562 ± 0.002,0.00362 ± 0.002,0.00056 ± 0.009
UCCUGGUACAGCUUGCAUAGUUUUUAGUUA,0.0505 ± 0.013,0.00579 ± 0.0038,0.00335 ± 0.0044,0.000689 ± 0.02
UCCUGGAUCAGCUUGCAUAGAAUUUAGUUA,0.0368 ± 0.0086,0.00356 ± 0.002,0.00327 ± 0.0015,0.000935 ± 0.0083
UCCUGGUACAGGUUGCAUAGUAUAUAGUUA,0.42 ± 0.089,,0.00251 ± 0.0033,0.000882 ± 0.01
UCCUGGAUGAGCUUGCAUACUAUUUAGAAA,0.00223 ± 0.0058,0.000632 ± 0.011,0.00478 ± 0.0029,0.000387 ± 0.019
UCCUGGAACUCGUUGCAUAGUAUUUAGUUA,0.154 ± 0.018,0.00417 ± 0.0024,0.00531 ± 0.0017,< 0.0001
UCCUGGAUGUCGAACGUAUGGUAUUUAGUUA,0.00101 ± 0.0084,0.000831 ± 0.0077,0.000667 ± 0.012,0.000304 ± 0.021
UCCUCCUACAGCUUGCAUAGUAUGUUAGUUA,0.126 ± 0.022,0.00205 ± 0.0038,0.00459 ± 0.0021,0.000476 ± 0.011
UCCUGCUACAGCAUGCAUAGUAUUUAGUUA,0.353 ± 0.022,0.00853 ± 0.003,0.0124 ± 0.0037,0.000796 ± 0.0079
UCCUGGUACAGCUUGCAUAGUACUUUAGUUA,0.147 ± 0.024,0.00705 ± 0.0032,0.00549 ± 0.0027,0.00149 ± 0.0064
UCCUGGAUCACCUUGCAUAGUUUUUAGUUA,0.016 ± 0.0061,0.00336 ± 0.0034,0.00185 ± 0.0052,0.000555 ± 0.015
UCCUGGAUGUCGUUGCAUAGUAUUUAGUUUA,0.178 ± 0.018,0.0103 ± 0.0039,0.0007 ± 0.016,0.000676 ± 0.015
UCCUGGAUCAGCUUACAUAGUAUUUAGUUA,0.249 ± 0.014,0.00805 ± 0.0023,0.175 ± 0.039,0.000873 ± 0.01
UCCUGCUACAGCUUGCAUCAGUAUUUAGUUA,0.015 ± 0.0065,0.00186 ± 0.0032,0.00219 ± 0.0025,0.000648 ± 0.01
UCCUGCUUCAGCUUGCAUUGUAUUUAGUUA,0.218 ± 0.013,0.0103 ± 0.0023,0.0233 ± 0.0065,0.00121 ± 0.0069
UCCUGGUUGAGCUUGCAUAGUAUUUAGAAA,0.0925 ± 0.026,0.00274 ± 0.0031,0.00175 ± 0.0033,0.000636 ± 0.013
UCCUGCUACACCUUGCAUAGUAUUUUGUUA,0.1 ± 0.032,0.00209 ± 0.0042,0.00317 ± 0.0023,0.000533 ± 0.015
UCCUGGAUGUGCUUGCAUAGUAUUUAAUUA,0.0357 ± 0.011,0.00315 ± 0.003,0.113 ± 0.038,0.000695 ± 0.017
UCCUGGAACAGCUUGCAAAGUAUUUAGAAA,0.166 ± 0.038,0.00214 ± 0.0032,0.00418 ± 0.002,0.000214 ± 0.037
UCCUGGAUGUCCUUGCAUAGUAUUUAGUAUA,0.191 ± 0.03,0.00617 ± 0.0026,0.00442 ± 0.0031,0.000106 ± 0.07

# 2 records picked at random from the list so far:
Sequence,"pre-steady-state target cleavage rate [1, 3]","pre-steady-state target cleavage rate [1, 4]","pre-steady-state target cleavage rate [2, 5]","pre-steady-state target cleavage rate [2, 6]"
UCCUGGAACAGCUUGCAUAGUUAUUAGUUA,0.0369 ± 0.0099,0.00268 ± 0.0034,0.00251 ± 0.0017,0.000907 ± 0.0079
UCCUGGAUGUCGUUGCAUAGUAUUGAGUUA,0.0312 ± 0.011,0.00363 ± 0.0032,0.000515 ± 0.0088,0.000205 ± 0.037
